Laboratory results taken from paper PMC4613713.

Amino acid sequences for entries named in this document (tags omitted). Residues count along the entry.
UniProt P08603, residues 19-1231: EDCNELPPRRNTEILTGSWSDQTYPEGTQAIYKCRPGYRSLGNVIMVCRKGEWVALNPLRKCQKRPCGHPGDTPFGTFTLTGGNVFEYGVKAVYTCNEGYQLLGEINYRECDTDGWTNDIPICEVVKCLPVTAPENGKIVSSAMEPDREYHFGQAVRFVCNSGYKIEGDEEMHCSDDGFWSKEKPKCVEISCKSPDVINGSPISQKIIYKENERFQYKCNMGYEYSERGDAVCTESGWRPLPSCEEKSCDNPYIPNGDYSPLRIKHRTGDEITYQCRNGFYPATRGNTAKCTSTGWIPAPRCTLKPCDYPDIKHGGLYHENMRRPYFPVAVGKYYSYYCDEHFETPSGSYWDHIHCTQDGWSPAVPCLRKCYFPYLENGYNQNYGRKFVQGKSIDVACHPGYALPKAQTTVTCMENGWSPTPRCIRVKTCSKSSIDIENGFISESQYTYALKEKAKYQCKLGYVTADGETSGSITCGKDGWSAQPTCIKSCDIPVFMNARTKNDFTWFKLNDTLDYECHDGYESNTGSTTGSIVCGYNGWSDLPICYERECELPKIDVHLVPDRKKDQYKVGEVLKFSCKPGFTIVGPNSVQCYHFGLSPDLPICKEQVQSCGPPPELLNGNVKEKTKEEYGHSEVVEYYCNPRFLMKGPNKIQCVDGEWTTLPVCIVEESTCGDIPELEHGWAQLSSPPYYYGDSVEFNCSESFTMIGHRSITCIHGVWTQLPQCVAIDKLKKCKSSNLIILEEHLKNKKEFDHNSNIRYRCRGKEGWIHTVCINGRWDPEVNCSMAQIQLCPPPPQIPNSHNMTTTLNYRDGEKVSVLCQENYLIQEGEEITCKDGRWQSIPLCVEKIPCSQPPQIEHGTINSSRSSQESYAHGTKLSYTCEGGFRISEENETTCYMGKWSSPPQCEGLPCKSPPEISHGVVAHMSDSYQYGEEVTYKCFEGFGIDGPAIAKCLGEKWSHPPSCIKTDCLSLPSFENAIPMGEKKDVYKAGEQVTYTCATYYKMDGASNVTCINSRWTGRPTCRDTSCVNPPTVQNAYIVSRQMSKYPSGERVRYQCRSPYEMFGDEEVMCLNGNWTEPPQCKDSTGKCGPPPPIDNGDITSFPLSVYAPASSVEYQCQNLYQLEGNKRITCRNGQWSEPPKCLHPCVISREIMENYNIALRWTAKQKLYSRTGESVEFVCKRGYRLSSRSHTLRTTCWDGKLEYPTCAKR

Target: BAPKO_0422^20–201 (untagged) (Borrelia afzelii) (UniProt Q0SNA2)
Assay: far-Western, overlay or dot blot; affinity ligand-binding immunoblot (ALBI): 10 μg BAPKO_0422^20–201 run on native-PAGE, blotted on PVDF, blocked in 5 % milk; incubated with human fH 73 μg/ml in TBS for 14 h at 4°C; bound fH detected by mouse monoclonal anti-human fH and a fluorescent secondary antibody; control blot incubated with TBS in place of fH; both purified

human factor H (from UniProt P08603 19-1231)
binding: binds

Results are given in words; binding and its absence hold for the method and conditions named. A result given as binding can be weak or reduced; the word gives no strength.
